From paper PMC5851065
These are yes or no findings as the source states them, for the method shown. In cells and extracts the contact can be indirect. A result given as binding can be weak or reduced; the word gives no strength.

Chains of the proteins cited; added tags and fusions are not shown. Lines headed by an entry give the natural chain unless they say otherwise; changes in a name come on top.
UniProt Q5V9L5: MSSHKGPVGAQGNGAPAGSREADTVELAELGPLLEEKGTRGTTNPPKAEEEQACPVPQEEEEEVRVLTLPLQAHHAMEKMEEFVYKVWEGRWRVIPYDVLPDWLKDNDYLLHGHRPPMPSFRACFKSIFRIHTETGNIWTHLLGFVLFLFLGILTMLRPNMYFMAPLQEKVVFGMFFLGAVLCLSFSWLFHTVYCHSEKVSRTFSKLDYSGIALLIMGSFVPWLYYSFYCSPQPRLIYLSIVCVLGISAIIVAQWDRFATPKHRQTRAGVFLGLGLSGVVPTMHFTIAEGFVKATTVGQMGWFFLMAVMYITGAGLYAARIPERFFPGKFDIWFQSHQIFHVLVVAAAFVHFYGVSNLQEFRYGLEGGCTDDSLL

Target: T1, mouse adiponectin (mouse (endogenous in mouse colon)) (UniProt Q60994)
T1 sequence: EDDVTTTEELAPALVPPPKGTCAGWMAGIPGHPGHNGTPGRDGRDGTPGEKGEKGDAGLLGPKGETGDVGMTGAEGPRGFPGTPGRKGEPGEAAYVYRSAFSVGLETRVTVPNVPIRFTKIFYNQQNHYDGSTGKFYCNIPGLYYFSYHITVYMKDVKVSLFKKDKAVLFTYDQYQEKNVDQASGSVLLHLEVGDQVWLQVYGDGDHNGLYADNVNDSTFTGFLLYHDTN
Assay: co-IP; IP with anti-ADN antibody (ab22554), immunoblot with anti-flag antibody (F1804) and anti-ADN antibody; colon of WT and pAdipoR1 mice

porcine adiponectin receptor 1 conjugated with flag (from UniProt Q5V9L5)
binding: binds
